Counter-ions that a name gives are not always drawn.
Tested on: rabbits with intact skin
Assay: Screening of antihistamines for dermal irritation (24/72 hour screen, Draize grading)
Conditions: 24/72 hour dermal irritation screen in rabbits with intact skin; formulation strength as given in the label

## CN(C)CCOC(c1ccccc1)c1ccccc1 [Diphenhydramine HCl]
  Rabbit Dermal Irritation: (+)

— patent EP0188538B1, “TRANSDERMAL DELIVERY OF AZATADINE” (priority 1984, dated 1986)
